Measurements as given in patent publication US7541179.
These are yes or no findings as the source states them, for the method shown. Some entries that bind do so weakly or less than the wild type.

The chains behind the UniProt entries cited, without tags or fusion partners. Residues count along the entry.
UniProt P01942, residues 2-142: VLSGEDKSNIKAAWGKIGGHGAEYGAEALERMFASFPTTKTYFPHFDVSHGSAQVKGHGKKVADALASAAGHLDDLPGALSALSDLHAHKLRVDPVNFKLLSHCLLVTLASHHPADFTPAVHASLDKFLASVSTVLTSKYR
UniProt P68871, residues 2-147: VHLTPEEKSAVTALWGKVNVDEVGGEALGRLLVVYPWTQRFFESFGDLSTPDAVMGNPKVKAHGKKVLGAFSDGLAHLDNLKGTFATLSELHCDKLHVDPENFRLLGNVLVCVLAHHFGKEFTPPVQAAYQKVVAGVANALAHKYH

Experiments:
[1] = target: endogenous murine α-globin (mouse) (UniProt P01942); experiment: haemoglobin analysis of peripheral blood
[2] = target: endogenous murine α-globin (mouse) (UniProt P01942); experiment: cellulose acetate gel fractionation of red cell lysates
[3] = target: endogenous murine α-globin (mouse) (UniProt P01942); experiment: quantitative hemoglobin analysis of tetramers (Hbb^hu, mu α2: huβ^A2)

Measured: binding

vector-encoded human β-globin (β^A) (from UniProt P68871 2-147)
binds: [1] | [2] | [3]
